Over roughly 33,000 sequences, “E-score (-0.5 to 0.5)” has its median near -0.0059; the highest 2% begin near 0.26. The list shows a part of the results.
Each sequence was assayed against T1, Cin5 (UniProt P40917) (assay: PBM E-score (8-mer binding enrichment) (E-score (-0.5 to 0.5)); higher = stronger / more preferred TF binding). Details: protein concentration: 100 nM; construct: GST-full length.
T1 sequence: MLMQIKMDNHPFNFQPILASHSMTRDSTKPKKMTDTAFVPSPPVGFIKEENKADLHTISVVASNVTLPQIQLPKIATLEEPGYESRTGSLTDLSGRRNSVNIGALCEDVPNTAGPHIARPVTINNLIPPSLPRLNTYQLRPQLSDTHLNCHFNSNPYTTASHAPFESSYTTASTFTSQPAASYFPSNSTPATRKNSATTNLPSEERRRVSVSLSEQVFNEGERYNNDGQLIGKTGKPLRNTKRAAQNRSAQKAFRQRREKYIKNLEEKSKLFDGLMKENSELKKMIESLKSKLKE
Method in brief: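 Universal all-10-mer Agilent arrays, fresh or stripped once, were converted to double-stranded form by primer extension. GST-tagged yeast transcription factors from PURExpress in vitro transcription/translation, full-length or DNA-binding domain only, were applied at about 100-200 nM and detected with fluorescent anti-GST. After masliner normalisation, the Universal PBM Analysis Suite scored each ungapped eight-base word together with its reverse complement by E-score.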

Row | Sequence | PBM E-score
1 | ACTGTTCA | -0.0363
2 | TCGCTAAA | -0.0356
3 | CACTCACA | 0.11
4 | AGGTCCAT | 0.086
5 | AAGCGACA | 0.219
6 | CGCTTGAG | -0.114
7 | AAGGTAGT | -0.00409
8 | AACGCAGC | -0.0283
9 | AGTAACGA | -0.0632
10 | AGGAACTC | 0.0409
11 | GACACATA | 0.0373
12 | AGATAAAA | 0.251
13 | AATTTCGT | 0.0584
14 | ATCCTCAA | -0.159
15 | ATTACGCG | 0.182
16 | ACGTCATG | 0.228
17 | CGGGTAAC | -0.0112
18 | ACCAGCGA | -0.114
19 | GCAATCGA | 0.0191
20 | CAGCCGCA | -0.119
21 | ACCTTTGA | -0.0878
22 | CCATGTGA | -0.0756
23 | CACCGGAA | 0.156
24 | CTCGTTGA | -0.154
25 | TCCAATCA | -0.102

Row | Sequence | PBM E-score
26 | AAATTAGA | 0.206
27 | GAAAGTCC | -0.194
28 | ATTGACAG | -0.0647
29 | GAATTCAC | 0.0227
30 | GTATCCAA | -0.0872
31 | AGATTTTA | 0.00061
32 | GGAGGACC | -0.238
33 | TATTGGGA | 0.103
34 | CCCGATTA | 0.254
35 | CACCGATG | -0.204
36 | AGGACTGC | -0.339
37 | AGACTCAG | -0.013
38 | GGTACTAC | 0.0413
39 | CTTCGGGC | -0.215
40 | CCACTAAG | 0.0954
41 | AGTGGCAT | 0.00851
42 | AGTAGCCC | -0.222
43 | CGCAGTTC | -0.0956
44 | GCGAAGCA | -0.123
45 | AGGGATGG | 0.0501
46 | GGGAAGAC | -0.205
47 | TAGCTAAA | -0.0851
48 | AGTTTTGC | 0.0828
49 | CGGACTAA | -0.00871
50 | ACGACGCA | 0.0498

Row | Sequence | PBM E-score
51 | AATCCCCA | 0.175
52 | CACACCAG | -0.0385
53 | CTGCACAG | -0.137
54 | CCGGAGAC | -0.0135
55 | ACTAGTAT | 0.244
56 | CAGAGGAC | -0.16
57 | ATAGAACC | -0.0935
58 | ACAGACCA | 0.178
59 | GTATTCGA | -0.0476
60 | GTGGGCGA | 0.0134
61 | ACGGATCT | 0.00047
62 | CCATGAAA | 0.105
63 | CTAGCCAC | -0.295
64 | GCGTTGTA | 0.13
65 | CGCGGATA | 0.241
66 | ACTGAAAA | -0.00588
67 | GGTAGTCA | -0.104
68 | ATCACCAG | 0.0411
69 | CTTCTCTC | -0.122
70 | ACGCCTCG | -0.0228
71 | CTTAGCTA | 0.151
72 | AGCTACGC | -0.198
73 | TAAAGAAA | 0.0915
74 | ACGTTAGG | -0.0369
75 | ACGAACGC | 0.159

Row | Sequence | PBM E-score
76 | TCATGGAA | 0.156
77 | AGTAGCAC | -0.0521
78 | GGAACTCA | -0.0233
79 | CTGACCGC | -0.068
80 | AAGGATAG | 0.0333
81 | TCATAGGA | 0.00353
82 | ACATGGGT | 0.0649
83 | ACAAGGGT | -0.0256
84 | AGGTTGGA | 0.12
85 | CTTTCCTA | -0.0434
86 | CTGTTGAA | 0.174
87 | ATCGTGTG | 0.0547
88 | ACTCAAGG | -0.142
89 | TACCCCGA | 0.147
90 | GTACAAAA | 0.187
91 | ATTTCACC | 0.0527
92 | CAACGTTC | -0.0398
93 | ATATCCCA | 0.109
94 | CGTCAATC | 0.0892
95 | CAGTTGTA | 0.00397
96 | AGAAGTAG | -0.0741
97 | ATTTTGGC | 0.2
98 | ACTGGTTA | 0.0299
99 | ACTTTAAC | -0.089
100 | ACAGGCCA | -0.079

Row | Sequence | PBM E-score
101 | ACAAGGGC | -0.224
102 | AGTGTAAG | 0.0937
103 | CCCTAAGG | -0.265
104 | AGCGGAGA | 0.165
105 | TCAGTCAA | -0.0715
106 | GATTGCGC | 0.0315
107 | CAGGGCGC | -0.0291
108 | GGCGACAA | -0.178
109 | ACAGCCAA | -0.117
110 | CGCGGAAC | 0.199
111 | AGGCGACG | 0.0217
112 | GGGGACCC | -0.335
113 | AATCTCCT | -0.0944
114 | CCCGTGAC | -0.129
115 | GTCGGATA | -0.075
116 | ACTATATC | 0.214
117 | CATAGCTA | -0.0558
118 | CGAGGCCA | -0.13
119 | ATGGAGAG | -0.227
120 | ACAACAGG | -0.098
121 | GATTTTAA | 0.0399
122 | ATGAGTGC | 0.141
123 | ATGCAAAT | 0.0924
124 | CTAAAAAA | 0.157
125 | AACCATCA | 0.0574

Row | Sequence | PBM E-score
126 | ATTCATAC | 0.224
127 | GCTCTACA | 0.0349
128 | AGTACTAC | 0.18
129 | AGAGAAGC | 0.00101
130 | GGCTGGCA | -0.335
131 | AAAATCAG | 0.00782
132 | CAAGGTAA | 0.15
133 | CTCTTATC | 0.192
134 | CTTATCAA | 0.278
135 | ATGGATTG | 0.189
136 | CATACCGG | 0.0193
137 | ATATTCAT | 0.177
138 | ACGATTGG | 0.0542
139 | CTGGTGTA | -0.145
140 | CCATCTCG | 0.0794
141 | AGCGGTTA | -0.121
142 | AGGGAGCG | -0.126
143 | ATGCCTTC | -0.26
144 | ATCAAGGA | 0.0502
145 | ACCGACCA | 0.114
146 | AAAGATCA | 0.0533
147 | ACACCTAC | 0.0674
148 | CCTTTCCC | -0.131
149 | ATGTAAAA | 0.146
150 | ACCGTCTC | -0.0405

Row | Sequence | PBM E-score
151 | CCGTTGAC | -0.121
152 | ACGTATGG | -0.0978
153 | ACTGTCTA | 0.0181
154 | ACTTCAAG | -0.0303
155 | AACAGGGG | -0.116
156 | GCTTCGCA | -0.174
157 | AGGGCAAG | -0.019
158 | ATACGATG | 0.129
159 | GAGCGAGC | 0.0244
160 | ATGAACAC | 0.0544
161 | GCAAAGAA | 0.0988
162 | AAAAATTT | 0.00434
163 | ACGAAAAT | 0.17
164 | CACAGCCC | -0.288
165 | GTGAAGGA | -0.0141
166 | CAAACCGA | 0.072
167 | ACCAGAGG | -0.247
168 | ACAATAGG | 0.024
169 | AATAAAGA | 0.113
170 | AATGCATA | 0.116
171 | AGCGGTAA | 0.116
172 | ATAGGCAC | -0.159
